Results deposited as PubChem BioAssay AID504774 (Drosophila RNAi Screening Center, 2011)
The deposit covers about 23,000 reagents; shown is an unselected part of those that have a named target and a result. 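Values are quantile-normalised luminescence on an arbitrary scale; higher means more cells surviving MMS.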 A plus sign joins genes that one reagent is predicted to hit.

- Aim: 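Knock-downs that shift viability of MMS-exposed cells relative to untreated ones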 (primary screen)
- System: Drosophila Kc167 cells
- Reagent: long dsRNA against Drosophila genes, about 0.25 µg dsRNA per well
- Duration: about 6 days: 3 days knock-down, then 3 days with or without MMS
- Treatment: methyl methanesulphonate 0.004% (w/v) for 3 days after knock-down
- Measurement: 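Viability in wells given MMS, read as ATP luminescence, normalised by quantiles plate by plate and averaged across replicates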
- Reading the numbers: mean viability with MMS and viability with MMS: higher = more surviving cells after MMS

no.	predicted target	amplicon	mean viability with MMS	viability with MMS, replicate 1	viability with MMS, replicate 2
1	CG3634	DRSC11747	3.24e6	3.70e6	3.63e6
2	CG31546	DRSC12317	3.65e6	4.23e6	4.09e6
3	LysX (Lysozyme X)	DRSC08678	3.62e6	4.07e6	4.10e6
4	eRF1 (eukaryotic translation release factor 1)	DRSC11779	3.37e6	3.81e6	3.81e6
5	Hecw (Hecw ubiquitin protein ligase)	DRSC18261	3.57e6	4.09e6	3.99e6
6	Hecw (Hecw ubiquitin protein ligase)	DRSC18276	3.65e6	4.13e6	4.10e6
7	Asator	DRSC17136	3.69e6	4.32e6	4.03e6
8	CG8870	DRSC16452	3.74e6	4.34e6	4.16e6
9	CG17721	DRSC15253	3.56e6	4.01e6	4.06e6
10	CG9447	DRSC05008	3.51e6	4.06e6	3.91e6
11	Clic (Chloride intracellular channel)	DRSC19364	3.38e6	4.13e6	3.84e6
12	CG10077	DRSC09691	3.52e6	3.96e6	4.02e6
13	Teh3 (tipE homolog 3)	DRSC08537	3.47e6	3.92e6	3.96e6
14	Phf7 (PHD finger protein 7)	DRSC20692	3.60e6	4.10e6	4.09e6
15	fig (fos intronic gene)	DRSC16270	3.48e6	4.09e6	3.76e6
16	Tmep (Transmembrane endosomal protein)	DRSC08215	3.61e6	4.13e6	4.06e6
17	CG9171	DRSC03152	3.69e6	4.31e6	4.12e6
18	CG9171	DRSC21813	3.47e6	3.97e6	3.93e6
19	Ptp4E (Protein tyrosine phosphatase 4E)	DRSC18701	3.55e6	4.00e6	3.98e6
20	gpp (grappa)	DRSC12515	3.27e6	3.76e6	3.73e6
21	gpp (grappa)	DRSC12516	3.29e6	3.74e6	3.81e6
22	TwdlZ (TweedleZ)	DRSC19154	3.58e6	4.04e6	4.04e6
23	rpk (ripped pocket)	DRSC12386	3.50e6	4.00e6	3.94e6
24	rpk (ripped pocket)	DRSC21656	3.43e6	3.98e6	3.84e6
25	ogre (optic ganglion reduced)	DRSC18809	3.50e6	3.94e6	3.75e6
26	Spn28Da (Serpin 28Da)	DRSC02162	3.57e6	4.06e6	4.05e6
27	CG32212 + hpRNA:CR33940	DRSC09618	3.65e6	4.17e6	4.09e6
28	ninaG	DRSC16102	3.54e6	3.93e6	4.11e6
29	CG6330	DRSC16022	3.56e6	4.12e6	3.97e6
30	CG16815	DRSC02521	3.56e6	4.09e6	3.99e6

Looked up above:
Phf7 (PHD finger protein 7) [DRSC20692], mean viability with MMS: 3.60e6
Under “mean viability with MMS”, TwdlZ (TweedleZ) [DRSC19154] reads 3.58e6
Value for CG6330 [DRSC16022] in “viability with MMS, replicate 1”: 4.12e6
Value for gpp (grappa) [DRSC12515] under “mean viability with MMS”: 3.27e6
Result of Asator [DRSC17136] under “viability with MMS, replicate 2”: 4.03e6

Additional results follow.
no.	predicted target	amplicon	mean viability with MMS	viability with MMS, replicate 1	viability with MMS, replicate 2
31	SkpF + CG5357 (retired record)	DRSC04120	3.46e6	3.88e6	3.96e6
32	CG31041	DRSC13951	3.57e6	4.05e6	4.05e6
33	PGRP-LC (Peptidoglycan recognition protein LC)	DRSC08980	3.44e6	3.94e6	3.86e6
34	PGRP-LC (Peptidoglycan recognition protein LC)	DRSC10416	3.62e6	4.24e6	3.93e6
35	PGRP-LC (Peptidoglycan recognition protein LC)	DRSC10417	3.49e6	4.13e6	3.78e6
36	Cpr72Ec (Cuticular protein 72Ec)	DRSC10449	3.64e6	4.16e6	4.07e6
37	CG11034	DRSC02121	3.63e6	4.03e6	4.17e6
38	CG11034	DRSC02122	3.60e6	4.12e6	4.02e6
39	toe (twin of eyg)	DRSC09174	3.44e6	3.86e6	3.95e6
40	toe (twin of eyg)	DRSC09783	3.23e6	3.57e6	3.69e6
41	CG13024	DRSC09904	3.63e6	4.10e6	4.11e6
42	ssp (sunspot)	DRSC10252	3.38e6	3.85e6	3.88e6
43	opm (opossum)	DRSC20141	3.17e6	4.04e6	2.74e6
44	opm (opossum)	DRSC22135	3.13e6	3.85e6	3.76e6
45	Remo (Remoulade)	DRSC19710	3.65e6	4.17e6	4.07e6
46	CNMa (CNMamide)	DRSC08405	3.52e6	3.99e6	4.00e6
47	OSCP1	DRSC06304	3.51e6	3.89e6	4.04e6
48	Coq2 (Coenzyme Q biosynthesis protein 2)	DRSC16516	3.61e6	4.04e6	4.15e6
49	Coq2 (Coenzyme Q biosynthesis protein 2)	DRSC21366	3.78e6	4.25e6	4.26e6
50	CG32240	DRSC08093	3.53e6	4.01e6	3.98e6
51	nompB (no mechanoreceptor potential B)	DRSC03701	3.38e6	3.84e6	3.77e6
52	nompB (no mechanoreceptor potential B)	DRSC03731	3.61e6	3.80e6	4.14e6
53	CG3663	DRSC04402	3.71e6	4.11e6	4.25e6
54	Drep1 (DNA fragmentation factor-related protein 1)	DRSC07527	3.52e6	3.98e6	3.96e6
55	ChT (Choline transporter)	DRSC16296	3.41e6	3.90e6	3.83e6
56	Gfrl (Glial cell line-derived neurotrophic family receptor-like)	DRSC15197	3.62e6	4.05e6	4.13e6
57	Gfrl (Glial cell line-derived neurotrophic family receptor-like)	DRSC15199	3.56e6	3.90e6	4.17e6
58	Gfrl (Glial cell line-derived neurotrophic family receptor-like)	DRSC15565	3.62e6	4.08e6	4.10e6
59	Gfrl (Glial cell line-derived neurotrophic family receptor-like)	DRSC15719	3.68e6	4.12e6	4.24e6
60	CG31265	DRSC15745	3.58e6	4.14e6	3.99e6
61	PCB (Pyruvate carboxylase)	DRSC05939	3.63e6	4.14e6	4.10e6
62	CG18508	DRSC18155	3.53e6	3.96e6	4.06e6
63	NfI (Nuclear factor I)	DRSC17158	3.56e6	4.04e6	4.05e6
64	faf (fat facets)	DRSC16942	3.84e6	4.48e6	4.22e6
65	Ctr1B + Poxm	DRSC16245	3.45e6	3.88e6	3.96e6
66	betaNACtes6 (Nascent-associated complex beta-subunit-like, testis 6)	DRSC22925	3.59e6	4.12e6	3.98e6
67	C1GalTA (Core 1 Galactosyltransferase A)	DRSC03246	3.57e6	4.28e6	3.83e6
68	stil (stand still)	DRSC07699	3.57e6	4.03e6	4.08e6
